No constants are given. Whether binding was seen depends on the method and setting. Binding seen in cells or lysates may run through a third protein. Here binding means that the protein was enriched with, or labelled near, the bait; the list need not be complete.
The substances below were run against Rpb3 with C-terminal BioTAP tag (S. cerevisiae) (UniProt P16370) (assay: affinity purification with mass spectrometry; BioTAP-XL two-step purification of Rpb3-BioTAP (IgG beads, then streptavidin agarose) from 1% formaldehyde-cross-linked wildtype and spt6-1004 cells shifted to 37 °C for 80 min; on-bead trypsin digestion, TMT labelling, MS3 quantification; untagged wildtype and spt6-1004 cells as controls; FDR cutoff 0.05).

By UniProt entry, the sequences of proteins in these tests, tags left out.
UniProt P16370: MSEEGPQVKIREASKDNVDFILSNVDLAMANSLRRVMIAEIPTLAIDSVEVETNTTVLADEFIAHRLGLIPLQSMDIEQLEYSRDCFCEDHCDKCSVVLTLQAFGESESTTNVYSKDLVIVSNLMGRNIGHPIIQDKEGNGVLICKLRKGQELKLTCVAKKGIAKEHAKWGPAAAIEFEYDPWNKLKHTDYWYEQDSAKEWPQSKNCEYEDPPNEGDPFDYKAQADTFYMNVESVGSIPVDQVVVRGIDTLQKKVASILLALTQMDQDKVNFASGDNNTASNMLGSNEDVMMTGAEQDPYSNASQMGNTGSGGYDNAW
UniProt P32783: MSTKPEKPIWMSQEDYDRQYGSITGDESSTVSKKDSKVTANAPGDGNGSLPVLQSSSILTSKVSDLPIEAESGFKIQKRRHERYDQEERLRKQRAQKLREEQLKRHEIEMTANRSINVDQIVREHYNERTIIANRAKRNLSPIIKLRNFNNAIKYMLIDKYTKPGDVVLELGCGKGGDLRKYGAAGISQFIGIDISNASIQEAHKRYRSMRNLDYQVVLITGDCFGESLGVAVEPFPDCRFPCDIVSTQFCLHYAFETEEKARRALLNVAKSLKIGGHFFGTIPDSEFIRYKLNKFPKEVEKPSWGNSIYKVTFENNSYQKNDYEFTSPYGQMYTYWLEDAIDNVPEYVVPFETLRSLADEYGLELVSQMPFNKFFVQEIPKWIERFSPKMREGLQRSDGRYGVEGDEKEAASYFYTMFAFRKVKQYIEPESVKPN
UniProt Q01159: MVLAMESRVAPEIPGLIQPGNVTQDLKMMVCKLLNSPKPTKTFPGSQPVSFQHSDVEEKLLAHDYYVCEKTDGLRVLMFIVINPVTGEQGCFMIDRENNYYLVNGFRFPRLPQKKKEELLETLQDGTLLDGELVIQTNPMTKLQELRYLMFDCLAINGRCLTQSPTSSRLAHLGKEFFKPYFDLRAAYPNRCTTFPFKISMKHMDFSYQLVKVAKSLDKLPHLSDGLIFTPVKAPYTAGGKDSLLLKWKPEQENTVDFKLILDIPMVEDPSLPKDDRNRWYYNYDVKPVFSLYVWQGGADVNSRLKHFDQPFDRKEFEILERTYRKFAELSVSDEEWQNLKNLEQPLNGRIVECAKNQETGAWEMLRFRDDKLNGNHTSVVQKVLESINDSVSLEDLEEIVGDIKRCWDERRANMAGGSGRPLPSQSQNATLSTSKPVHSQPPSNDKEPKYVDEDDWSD
UniProt P24783: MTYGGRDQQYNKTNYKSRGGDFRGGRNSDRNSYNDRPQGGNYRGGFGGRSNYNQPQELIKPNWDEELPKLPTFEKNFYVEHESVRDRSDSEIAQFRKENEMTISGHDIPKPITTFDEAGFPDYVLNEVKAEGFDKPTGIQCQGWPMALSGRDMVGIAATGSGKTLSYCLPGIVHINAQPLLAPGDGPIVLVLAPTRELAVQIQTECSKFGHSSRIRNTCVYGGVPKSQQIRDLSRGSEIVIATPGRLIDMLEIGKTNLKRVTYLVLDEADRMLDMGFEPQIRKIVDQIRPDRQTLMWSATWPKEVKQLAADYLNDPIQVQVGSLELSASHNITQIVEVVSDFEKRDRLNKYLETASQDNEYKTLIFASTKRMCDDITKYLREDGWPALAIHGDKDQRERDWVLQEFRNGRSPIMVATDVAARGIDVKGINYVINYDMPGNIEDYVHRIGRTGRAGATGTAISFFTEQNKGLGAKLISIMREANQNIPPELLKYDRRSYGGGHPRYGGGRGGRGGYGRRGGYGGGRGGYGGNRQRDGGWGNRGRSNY
UniProt P15646: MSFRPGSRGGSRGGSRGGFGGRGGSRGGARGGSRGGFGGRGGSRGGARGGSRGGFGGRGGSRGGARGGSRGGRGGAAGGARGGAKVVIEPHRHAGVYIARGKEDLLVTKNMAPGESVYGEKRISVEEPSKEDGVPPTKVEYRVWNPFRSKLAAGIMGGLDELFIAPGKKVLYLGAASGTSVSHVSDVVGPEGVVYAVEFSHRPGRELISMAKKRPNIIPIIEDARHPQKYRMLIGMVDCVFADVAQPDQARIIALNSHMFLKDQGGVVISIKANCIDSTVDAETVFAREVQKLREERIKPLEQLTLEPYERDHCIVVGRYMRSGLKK
UniProt Q04373: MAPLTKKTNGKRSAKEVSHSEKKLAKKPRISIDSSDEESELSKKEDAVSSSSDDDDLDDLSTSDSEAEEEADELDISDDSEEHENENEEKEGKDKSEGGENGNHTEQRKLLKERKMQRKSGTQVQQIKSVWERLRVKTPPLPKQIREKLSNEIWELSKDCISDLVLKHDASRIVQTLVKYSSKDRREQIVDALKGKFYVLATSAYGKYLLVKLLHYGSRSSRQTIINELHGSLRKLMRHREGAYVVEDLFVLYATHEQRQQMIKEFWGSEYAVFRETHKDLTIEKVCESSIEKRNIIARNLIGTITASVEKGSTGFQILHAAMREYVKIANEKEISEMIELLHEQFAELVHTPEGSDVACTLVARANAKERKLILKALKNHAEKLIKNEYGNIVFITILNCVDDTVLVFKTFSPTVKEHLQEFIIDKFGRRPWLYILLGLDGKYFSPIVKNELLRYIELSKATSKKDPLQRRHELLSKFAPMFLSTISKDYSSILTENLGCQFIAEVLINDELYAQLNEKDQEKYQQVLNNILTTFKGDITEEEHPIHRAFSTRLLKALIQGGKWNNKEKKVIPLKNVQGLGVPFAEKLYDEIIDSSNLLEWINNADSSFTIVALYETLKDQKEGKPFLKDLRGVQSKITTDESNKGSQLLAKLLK
UniProt P38811: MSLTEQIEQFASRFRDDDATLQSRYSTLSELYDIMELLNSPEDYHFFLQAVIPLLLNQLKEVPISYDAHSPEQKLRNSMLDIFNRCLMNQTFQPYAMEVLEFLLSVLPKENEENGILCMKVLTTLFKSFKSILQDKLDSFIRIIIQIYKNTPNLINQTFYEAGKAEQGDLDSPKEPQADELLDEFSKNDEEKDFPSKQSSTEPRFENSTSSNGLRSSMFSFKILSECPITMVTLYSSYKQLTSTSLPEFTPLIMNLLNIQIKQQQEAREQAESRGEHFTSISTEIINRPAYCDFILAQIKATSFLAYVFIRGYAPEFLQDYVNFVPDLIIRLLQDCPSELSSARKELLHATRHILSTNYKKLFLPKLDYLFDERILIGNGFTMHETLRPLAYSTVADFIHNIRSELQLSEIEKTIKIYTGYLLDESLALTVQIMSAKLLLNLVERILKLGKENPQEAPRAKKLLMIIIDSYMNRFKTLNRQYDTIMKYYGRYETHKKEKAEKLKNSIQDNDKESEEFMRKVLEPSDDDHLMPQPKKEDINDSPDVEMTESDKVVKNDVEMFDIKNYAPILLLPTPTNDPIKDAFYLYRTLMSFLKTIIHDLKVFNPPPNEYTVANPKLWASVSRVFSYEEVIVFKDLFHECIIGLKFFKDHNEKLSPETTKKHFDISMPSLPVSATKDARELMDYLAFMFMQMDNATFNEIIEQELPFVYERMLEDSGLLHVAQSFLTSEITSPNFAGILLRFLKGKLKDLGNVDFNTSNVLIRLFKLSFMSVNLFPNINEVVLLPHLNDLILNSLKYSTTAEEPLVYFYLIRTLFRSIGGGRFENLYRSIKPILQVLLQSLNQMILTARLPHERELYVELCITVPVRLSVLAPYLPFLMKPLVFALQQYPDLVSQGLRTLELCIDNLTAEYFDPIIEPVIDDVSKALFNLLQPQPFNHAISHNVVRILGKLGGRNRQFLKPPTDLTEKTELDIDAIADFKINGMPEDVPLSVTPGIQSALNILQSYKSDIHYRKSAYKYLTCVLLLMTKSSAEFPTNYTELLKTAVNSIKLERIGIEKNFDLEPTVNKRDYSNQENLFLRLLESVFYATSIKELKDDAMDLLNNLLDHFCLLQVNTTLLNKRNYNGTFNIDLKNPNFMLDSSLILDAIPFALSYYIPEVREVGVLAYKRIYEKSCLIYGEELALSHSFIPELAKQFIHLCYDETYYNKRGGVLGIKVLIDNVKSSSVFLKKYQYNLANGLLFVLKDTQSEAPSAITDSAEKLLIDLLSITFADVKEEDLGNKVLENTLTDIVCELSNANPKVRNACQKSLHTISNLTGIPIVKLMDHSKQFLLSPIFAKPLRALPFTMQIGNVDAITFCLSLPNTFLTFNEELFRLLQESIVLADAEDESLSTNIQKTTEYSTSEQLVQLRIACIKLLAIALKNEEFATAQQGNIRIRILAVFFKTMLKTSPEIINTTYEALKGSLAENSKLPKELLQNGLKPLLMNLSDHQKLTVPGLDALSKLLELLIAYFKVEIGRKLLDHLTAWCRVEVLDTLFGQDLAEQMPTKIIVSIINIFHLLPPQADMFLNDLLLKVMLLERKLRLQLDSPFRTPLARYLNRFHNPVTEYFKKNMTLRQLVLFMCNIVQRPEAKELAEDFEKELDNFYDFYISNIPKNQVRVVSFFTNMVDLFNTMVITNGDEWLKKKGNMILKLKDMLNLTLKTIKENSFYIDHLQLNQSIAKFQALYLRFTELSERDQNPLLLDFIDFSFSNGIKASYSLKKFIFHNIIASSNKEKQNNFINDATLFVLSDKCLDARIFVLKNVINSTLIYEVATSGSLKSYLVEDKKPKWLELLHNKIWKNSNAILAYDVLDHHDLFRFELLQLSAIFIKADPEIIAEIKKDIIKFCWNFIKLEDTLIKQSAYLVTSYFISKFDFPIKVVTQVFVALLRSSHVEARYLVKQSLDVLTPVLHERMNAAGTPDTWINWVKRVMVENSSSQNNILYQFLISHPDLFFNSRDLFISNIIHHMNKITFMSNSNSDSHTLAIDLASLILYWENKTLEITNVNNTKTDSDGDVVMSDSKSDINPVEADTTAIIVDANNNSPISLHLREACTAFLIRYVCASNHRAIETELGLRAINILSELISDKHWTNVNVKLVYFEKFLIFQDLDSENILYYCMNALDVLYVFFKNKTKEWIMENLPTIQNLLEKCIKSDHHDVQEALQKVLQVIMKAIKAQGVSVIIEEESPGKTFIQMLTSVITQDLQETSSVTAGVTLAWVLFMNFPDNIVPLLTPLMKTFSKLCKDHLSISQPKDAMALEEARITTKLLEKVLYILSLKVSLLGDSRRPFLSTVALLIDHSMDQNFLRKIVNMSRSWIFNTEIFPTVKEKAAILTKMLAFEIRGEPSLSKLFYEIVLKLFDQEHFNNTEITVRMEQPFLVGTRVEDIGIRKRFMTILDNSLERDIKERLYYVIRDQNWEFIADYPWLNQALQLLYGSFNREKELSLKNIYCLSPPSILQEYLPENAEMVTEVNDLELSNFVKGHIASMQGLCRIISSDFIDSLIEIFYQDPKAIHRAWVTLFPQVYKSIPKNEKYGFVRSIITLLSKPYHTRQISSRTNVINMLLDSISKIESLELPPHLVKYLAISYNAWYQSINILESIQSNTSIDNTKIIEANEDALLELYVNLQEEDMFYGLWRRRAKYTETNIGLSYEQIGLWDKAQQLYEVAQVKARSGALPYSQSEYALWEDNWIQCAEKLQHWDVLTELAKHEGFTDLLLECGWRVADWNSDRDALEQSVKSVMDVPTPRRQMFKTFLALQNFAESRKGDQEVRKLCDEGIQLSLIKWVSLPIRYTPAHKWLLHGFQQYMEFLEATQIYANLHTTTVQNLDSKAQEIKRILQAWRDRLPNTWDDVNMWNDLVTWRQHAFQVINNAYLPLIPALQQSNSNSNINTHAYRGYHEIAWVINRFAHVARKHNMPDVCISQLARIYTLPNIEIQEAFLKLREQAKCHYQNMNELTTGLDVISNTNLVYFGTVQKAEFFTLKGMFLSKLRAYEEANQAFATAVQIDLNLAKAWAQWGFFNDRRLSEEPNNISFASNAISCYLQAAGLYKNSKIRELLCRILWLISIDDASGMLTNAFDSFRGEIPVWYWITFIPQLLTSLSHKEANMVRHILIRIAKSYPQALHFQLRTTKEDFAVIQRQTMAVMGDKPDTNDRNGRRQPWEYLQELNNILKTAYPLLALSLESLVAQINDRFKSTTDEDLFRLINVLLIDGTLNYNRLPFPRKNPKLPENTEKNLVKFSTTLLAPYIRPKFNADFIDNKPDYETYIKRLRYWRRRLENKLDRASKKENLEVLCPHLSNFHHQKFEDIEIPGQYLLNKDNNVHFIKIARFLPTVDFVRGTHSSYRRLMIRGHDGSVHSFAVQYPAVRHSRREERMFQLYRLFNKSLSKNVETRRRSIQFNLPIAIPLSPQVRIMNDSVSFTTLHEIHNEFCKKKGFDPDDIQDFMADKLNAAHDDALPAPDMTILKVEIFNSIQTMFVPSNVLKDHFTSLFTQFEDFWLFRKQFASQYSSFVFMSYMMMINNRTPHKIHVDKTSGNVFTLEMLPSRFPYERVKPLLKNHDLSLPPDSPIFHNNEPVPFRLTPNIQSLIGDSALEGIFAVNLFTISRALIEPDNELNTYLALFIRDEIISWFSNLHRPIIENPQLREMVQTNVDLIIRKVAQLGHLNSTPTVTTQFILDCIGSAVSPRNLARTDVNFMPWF

Row | binding | Substance
1 | binds | Abd1 (from UniProt P32783 1-436) (enzyme)
2 | binds | Ceg1 (from UniProt Q01159 1-459) (enzyme)
3 | binds | Chd1 (from UniProt P32657 1-1468)
4 | binds | Dbp2 (from UniProt P24783 1-546)
5 | binds | Nop1 (from UniProt P15646 1-327)
6 | binds | Puf6 (from UniProt Q04373 1-656)
7 | binds | Rrp5 (from UniProt Q05022 1-1729)
8 | binds | Rtf1 (from UniProt P53064 1-558)
9 | binds | Tra1 (from UniProt P38811 1-3744)

— publication PMC8511950
